First the molecules themselves.
B1: RodA^A234T (enzyme, UniProt P0ABG7 2-370)
chain: TDNPNKKTFWDKVHLDPTMLLILLALLVYSALVIWSASGQDIGMMERKIGQIAMGLVIMVVMAQIPPRVYEGWAPYLYIICIILLVAVDAFGAISKGAQRWLDLGIVRFQPSEIAKIAVPLMVARFINRDVCPPSLKNTGIALVLIFMPTLLVAAQPDLGTSILVALSGLFVLFLSGLSWRLIGVAVVLVAAFIPILWFFLMHDYQRQRVMMLLDPESDPLGAGYHIIQSKITIGSGGLRGKGWLHGTQSQLEFLPERHTDFIFAVLAEELGLVGILILLALYILLIMRGLWIAARAQTTFGRVMAGGLMLILFVYVFVNIGMVSGILPVVGVPLPLVSYGGSALIVLMAGFGIVMSIHTHRKMLSKSV
B2: RodA (enzyme, UniProt P0ABG7 2-370)
chain: TDNPNKKTFWDKVHLDPTMLLILLALLVYSALVIWSASGQDIGMMERKIGQIAMGLVIMVVMAQIPPRVYEGWAPYLYIICIILLVAVDAFGAISKGAQRWLDLGIVRFQPSEIAKIAVPLMVARFINRDVCPPSLKNTGIALVLIFMPTLLVAAQPDLGTSILVALSGLFVLFLSGLSWRLIGVAVVLVAAFIPILWFFLMHDYQRQRVMMLLDPESDPLGAGYHIIQSKIAIGSGGLRGKGWLHGTQSQLEFLPERHTDFIFAVLAEELGLVGILILLALYILLIMRGLWIAARAQTTFGRVMAGGLMLILFVYVFVNIGMVSGILPVVGVPLPLVSYGGSALIVLMAGFGIVMSIHTHRKMLSKSV
B3: RodA^K243N (enzyme, UniProt P0ABG7 2-370)
chain: TDNPNKKTFWDKVHLDPTMLLILLALLVYSALVIWSASGQDIGMMERKIGQIAMGLVIMVVMAQIPPRVYEGWAPYLYIICIILLVAVDAFGAISKGAQRWLDLGIVRFQPSEIAKIAVPLMVARFINRDVCPPSLKNTGIALVLIFMPTLLVAAQPDLGTSILVALSGLFVLFLSGLSWRLIGVAVVLVAAFIPILWFFLMHDYQRQRVMMLLDPESDPLGAGYHIIQSKIAIGSGGLRGNGWLHGTQSQLEFLPERHTDFIFAVLAEELGLVGILILLALYILLIMRGLWIAARAQTTFGRVMAGGLMLILFVYVFVNIGMVSGILPVVGVPLPLVSYGGSALIVLMAGFGIVMSIHTHRKMLSKSV

Results are given in words; binding and its absence hold for the method and conditions named. Some entries that bind do so weakly or less than the wild type.

This test deals with T1, penicillin-binding protein (PBP) 2 (E. coli) (UniProt P0AD65).
T1 sequence: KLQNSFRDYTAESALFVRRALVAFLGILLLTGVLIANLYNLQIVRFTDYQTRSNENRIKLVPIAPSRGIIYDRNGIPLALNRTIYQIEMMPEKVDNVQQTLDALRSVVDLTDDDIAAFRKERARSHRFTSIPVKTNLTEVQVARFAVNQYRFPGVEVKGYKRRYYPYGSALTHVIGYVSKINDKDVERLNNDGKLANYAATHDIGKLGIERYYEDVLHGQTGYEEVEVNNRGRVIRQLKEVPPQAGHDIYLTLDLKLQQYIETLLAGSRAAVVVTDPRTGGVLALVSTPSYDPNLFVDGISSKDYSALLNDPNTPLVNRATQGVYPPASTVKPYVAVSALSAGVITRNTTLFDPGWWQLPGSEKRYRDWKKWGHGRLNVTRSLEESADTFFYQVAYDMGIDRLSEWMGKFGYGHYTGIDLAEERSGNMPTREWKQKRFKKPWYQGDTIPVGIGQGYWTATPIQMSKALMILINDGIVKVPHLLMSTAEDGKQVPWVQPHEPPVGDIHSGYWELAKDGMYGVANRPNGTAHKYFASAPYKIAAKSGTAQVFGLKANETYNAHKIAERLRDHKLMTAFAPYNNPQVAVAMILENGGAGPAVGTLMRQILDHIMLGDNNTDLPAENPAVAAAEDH
Nature of the test: two-hybrid; bacterial two-hybrid (BACTH): proteins fused to the T18 or T25 fragment of adenylate cyclase in DHM1 cells, streaked on a plate with X-gal, 37°C overnight; Miller units, average of two independent experiments.
With B1, the binding result is recorded as “binds”.
As for B2, the binding entry is “no binding”.
With B3 the entry was “binds”.
